Results as given in paper PMC4525203.
These are yes or no findings as the source states them, for the method shown. Binding seen in cells or lysates may run through a third protein. A yes stands for co-enrichment or nearness to the bait. Other partners may have been found. Tags and fused reporters may be left off the sequences shown.

T1: C-terminally 3xFlag-tagged Esrrb (oestrogen-related receptor beta) (mouse) (UniProt Q61539)
T1 sequence: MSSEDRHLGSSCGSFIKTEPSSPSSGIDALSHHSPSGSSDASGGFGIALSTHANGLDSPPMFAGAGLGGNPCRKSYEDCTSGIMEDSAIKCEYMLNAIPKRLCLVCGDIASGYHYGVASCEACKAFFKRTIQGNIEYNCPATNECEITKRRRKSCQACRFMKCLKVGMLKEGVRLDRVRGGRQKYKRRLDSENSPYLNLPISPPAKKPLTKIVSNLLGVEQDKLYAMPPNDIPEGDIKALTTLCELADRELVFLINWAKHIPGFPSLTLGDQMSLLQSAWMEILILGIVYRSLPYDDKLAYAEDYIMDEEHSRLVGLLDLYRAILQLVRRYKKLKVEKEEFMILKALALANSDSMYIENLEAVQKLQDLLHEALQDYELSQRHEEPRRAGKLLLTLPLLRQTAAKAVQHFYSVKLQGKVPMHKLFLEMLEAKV

B1: Steroid hormone receptor ERR1 (protein, UniProt O08580 1-422)
chain: MSSQVVGIEPLYIKAEPASPDSPKGSSETETEPPVTLASGPAPARCLPGHKEEEDGEGAGSGEQGSGKLVLSSLPKRLCLVCGDVASGYHYGVASCEACKAFFKRTIQGSIEYSCPASNECEITKRRRKACQACRFTKCLRVGMLKEGVRLDRVRGGRQKYKRRPEVDPLPFPGPFPAGPLAVAGGPRKTAPVNALVSHLLVVEPEKLYAMPDPASPDGHLPAVATLCDLFDREIVVTISWAKSIPGFSSLSLSDQMSVLQSVWMEVLVLGVAQRSLPLQDELAFAEDLVLDEEGARAAGLGDLGAALLQLVRRLQALRLEREEYVLLKALALANSDSVHIEDAEAVEQLREALHEALLEYEAGRAGPGGGAERRRAGRLLLTLPLLRQTAGKVLAHFYGVKLEGKVPMHKLFLEMLEAMMD
B2: LINE-1 type transposase domain-containing protein 1 (protein, UniProt Q587J6 1-782)
chain: MSGVQSKAARLQKERKEKLSADRERKTATSLCLKHSEVPASMMKQFNALMEMQEVMFAEMRETYKNDIKEMLLKRTAPWVKHLEERIGQQEGDAISERPKPGEKVEELSSGTDEDTENLTVRSKKGKQDKAKPLNSSHVLKSSLERGGEALRGEHGRCGESSSLVDWKNANEKPAREASCQSEENRLKAPKESPPEGGAGATLRLAADFSAATLDVGRQWSQVFRLLKEKELEPELQCSVKLAFKCDGEANVFSDLHSLRQFTSRKPFLRELLKDVFPQNEGGRRNELRERLGKTLGDTKHEARRIASDSLSFLFIKEVEVASPEVKTYKEETLDRKNKGTLKKQEGEEEEISETQGEETSEGETSELGEEEGSESEEEEESSESEEEEESSESAEEIGFISLVVDSESEEEVNRKTASQTKKKETFHGLKELAFSYLVWDSKKKKLVRCQEGGAAAASTQRIGMPCLTLYLTSPSESLGAGSDGPKSHSCTKLSALSQVTPLLTNIEKGRYKVPQTEEPTAKEADLILETEENFKRGVISVIRQMQREVDKIKNIYVSDVLNMKSSLDDLNSLACTIEARVSEQEDAVEGLTKDTMQLAREIVDKERLREREDRFRSSNIRVIGIPEKENRENGAVDIIKEVIEENFAELEDQSLEIVSAHRVPNSVDEHRLTPRHILVKFGSASDKQRVLKASRAKQEITYRGSKIRLTADLSPGTIDARSQWCGIIKILQDEGFQPRILYPAKLAFDFKGKTKIFFDIEEFKKFISDIPYLKDLLNNIH
B3: Upstream-binding protein 1 (protein, UniProt Q811S7 1-540)
chain: MAWVLSMDEVIESGLVHDFDSSLSGIGQELGAGAYSMSDVLALPIFKQEDSSLSLEDEAKHPPFQYVMCAATSPAVKLHDETLTYLNQGQSYEIRMLDNRKMGDMPELSGKLVKSIIRVVFHDRRLQYTEHQQLEGWKWNRPGDRLLDLDIPMSVGIIDTRTNPSQLNAVEFLWDPAKRTSAFIQVHCISTEFTPRKHGGEKGVPFRIQVDTFKQNENGEYTDHLHSASCQIKVFKPKGADRKQKNDREKMEKRTAHEKEKYQPSYDTTILTEMRLEPIIEDAVEHEQKKSSKRTLPADYGDSLAKRGSCSPWPDTPTAYVNNSPSPAPTFTSSQPSTCSVPDSNSSSPNHQGDGAAQASGEQIQPSATTQETQQWLLKNRFSSYTRLFSNFSGADLLKLTKEDLVQICGAADGIRLYNSLKSRSVRPRLTIYVCQEQPSSTALQGQPQAAGSGGESGGGTPSVYHAIYLEEMVASEVARKLASVFNIPFHQINQVYRQGPTGIHILVSDQMVQNFQDETCFLFSTVKAENNDGIHIILK
B4: Zinc-finger protein 281 (protein, UniProt Q99LI5 1-893)
chain: MKIGSGFLSGGGGPSSSGGSGSGGSSGSASGGSGGGRRAEMEPTFPQSMVMFNHRLPPVTSFTRPAGTAAPPPQCVLSSSTSAAPAAEPPPPPAPDMTFKKEPAASAAAFPSQRTSWGFLQSLVSIKQEKPADPEEQPSHHHHHHHHYGGLFAGAEERSPGLGGGEGGSHGVIQDLSLLHQHAQQQPAQHHRDVLLSSGSRTDEHGNQEPKQDANVKKAKRPKPESQGIKAKRKPSASSKPLVGEGEGAVLSPSQKPHICDHCSAAFRSSYHLRRHVLIHTGERPFQCSQCSMGFIQKYLLQRHEKIHSREKPFGCDQCSMKFIQKYHMERHKRTHSGEKPYKCDTCQQYFSRTDRLLKHRRTCGEAIAKGAASAEPGSSNHNSMGNLAVLSQGNTSSSRRKSKSKSIAIENKEHKTGKTNESQMSNNINMQSYSVEMPTVSTSGSIIGTGIDELQKRVPKLIFKKGSRKNADKSYLNFVSPLPDVVGQKSLSGKPGGSLGIVSNNSVETISLLQSTSGKQGPISSNYDDAMQFSKKRRYLPTASSNSAFSINVGHMVSQQSVIQSAGVSVLDNEAPLSLIDSSALNAEIKSCHDKSGIPDEVLQSILDQYSGKSETQKEDPFNLTEPRVDLHTSGEHSELVQEENLSPGTQTPSNDKTSMLQEYSKYLQQAFEKSTNAGFTLGHGFQFVSLSSPLHNHTLFPEKQIYTTSPLECGFGQSVTSVLPSSLPKPPFGMLFGSQPGLYLSALDATHQQLTPSQELDDLIDSQKNLETSSAFQSSSQKLTSQKEQQKNLESSTSFQIPSQELASQIDPQKDIEPRTTYQIENFAQAFGSQFKSGSRVPMTFITNSNGEVDHRVRTSVSDFSGYTNMMSDVSEPCSTRVKTPTSQSYR
B5: Nuclear receptor subfamily 0 group B member 1 (protein, UniProt Q61066 1-472)
chain: MAGEDHPWQGSILYNLLMSAKQKHASQEEREVRLGAQCWGCACGAQPVLGGERLSGGQARSLLYRCCFCGENHPRQGGILYSMLTNARQPSVATQAPRARFGAPCWGCACGSAEPLVGREGLPAGQAPSLLYRCCFCGEEHPRQGSILYSLLTSAQQTHVSREAPEAHRRGEWWQLSYCTQSVGGPEGLQSTQAMAFLYRSYVCGEEQPQQISVASGTPVSADQTPATPQEQPRAPWWDASPGVQRLITLKDPQVVCEAASAGLLKTLRFVKYLPCFQILPLDQQLVLVRSCWAPLLMLELAQDHLHFEMMEIPETNTTQEMLTTRRQETEGPEPAEPQATEQPQMVSAEAGHLLPAAAVQAIKSFFFKCWSLNIDTKEYAYLKGTVLFNPDLPGLQCVKYIEGLQWRTQQILTEHIRMMQREYQIRSAELNSALFLLRFINSDVVTELFFRPIIGAVSMDDMMLEMLCAKL
B6: Transcription factor CP2-like protein 1 (protein, UniProt Q3UNW5 1-479)
chain: MLFWHTQPEHYNQHNSGSYLRDVLALPIFKQEEPQLSPENGARLPPLQYVLCAATSPAVKLHEETLTYLNQGQSYEIRLLENRKLGDFQDLNTKYVKSIIRVVFHDRRLQYTEYQQLEGWRWSRPGDRILDIDIPLSVGILDPRASPTQLNAVEFLWDPSKRASAFIQVHCISTEFTPRKHGGEKGVPFRVQIDTFKQNESGDYSEHLHSASCQIKVFKPKGADRKQKTDREKMEKRTAQEKEKYQPSYETTILTECSPWPDVPYQANNTPSPSYNGSPNSFGLREGNSSPNHPVEPLPLGSDHLLPSASIQDAQQWLHRNRFSQFCWLFASFSGADLLKMSRDDLVQVCGPADGIRLFNAIKGRNVRPKMTIYVCQELEQNQLPLPQKQDDSGDNSLCVYHAIFLEELTTLELTEKIASLYSIPPQHIHRVYRQGPAGIHVVVSNEMVQNFQDESCFILSTLKAESNDGYHIILKCGL

Molecular target: T1, C-terminally 3xFlag-tagged Esrrb (oestrogen-related receptor beta) (mouse)
Test: affinity purification with mass spectrometry; anti-FLAG M2 agarose IP of Esrrb-3xFlag from TS cell nuclear extract dialysed to buffer D (20 mM Hepes pH 7.6, 20% glycerol, 100 mM KCl, 1.5 mM MgCl2, 0.2 mM EDTA), 3 h at 4 °C with Benzonase, elution with FLAG-tripeptide, LC-MS/MS; two biological replicates against vector control

Row | Binder | binding
1 | B1 | binds
2 | B2 | binds
3 | B3 | binds
4 | B4 | binds
5 | B5 | binds
6 | B6 | binds
